# Experimental data from the supplement of paper PMC10849652.
# Chains of the proteins cited; added tags and fusions are not shown. Lines headed by an entry give the natural chain unless they say otherwise; changes in a name come on top.
# UniProt Q13505: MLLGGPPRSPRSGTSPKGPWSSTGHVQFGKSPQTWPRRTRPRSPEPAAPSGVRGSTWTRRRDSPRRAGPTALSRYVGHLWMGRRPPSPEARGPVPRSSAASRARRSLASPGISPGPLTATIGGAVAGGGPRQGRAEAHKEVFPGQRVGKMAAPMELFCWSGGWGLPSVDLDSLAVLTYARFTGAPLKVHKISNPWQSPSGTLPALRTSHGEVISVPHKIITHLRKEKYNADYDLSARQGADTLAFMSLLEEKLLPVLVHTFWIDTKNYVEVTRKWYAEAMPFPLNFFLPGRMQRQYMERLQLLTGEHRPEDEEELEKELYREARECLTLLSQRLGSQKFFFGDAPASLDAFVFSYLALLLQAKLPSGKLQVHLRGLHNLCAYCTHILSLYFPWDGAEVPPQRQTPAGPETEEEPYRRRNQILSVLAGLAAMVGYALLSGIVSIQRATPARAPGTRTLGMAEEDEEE
# UniProt Q8NCE2: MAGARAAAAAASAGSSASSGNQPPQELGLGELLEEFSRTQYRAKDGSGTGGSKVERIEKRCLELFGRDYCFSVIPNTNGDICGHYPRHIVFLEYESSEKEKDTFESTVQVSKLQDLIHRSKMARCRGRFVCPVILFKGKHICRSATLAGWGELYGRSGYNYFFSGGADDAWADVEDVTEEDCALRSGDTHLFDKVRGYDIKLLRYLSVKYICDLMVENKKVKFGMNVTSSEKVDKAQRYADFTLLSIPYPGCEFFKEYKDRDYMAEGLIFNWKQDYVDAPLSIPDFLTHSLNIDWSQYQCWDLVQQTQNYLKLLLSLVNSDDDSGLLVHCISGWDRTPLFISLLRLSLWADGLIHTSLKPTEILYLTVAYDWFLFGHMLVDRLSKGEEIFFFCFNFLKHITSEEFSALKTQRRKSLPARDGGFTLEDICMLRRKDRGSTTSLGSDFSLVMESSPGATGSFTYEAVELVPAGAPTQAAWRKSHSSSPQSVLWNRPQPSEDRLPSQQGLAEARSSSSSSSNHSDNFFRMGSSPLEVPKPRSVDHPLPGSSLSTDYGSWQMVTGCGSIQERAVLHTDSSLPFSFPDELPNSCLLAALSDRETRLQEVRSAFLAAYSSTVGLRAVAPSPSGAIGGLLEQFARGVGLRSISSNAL
# UniProt P43246, whole entry, looked up: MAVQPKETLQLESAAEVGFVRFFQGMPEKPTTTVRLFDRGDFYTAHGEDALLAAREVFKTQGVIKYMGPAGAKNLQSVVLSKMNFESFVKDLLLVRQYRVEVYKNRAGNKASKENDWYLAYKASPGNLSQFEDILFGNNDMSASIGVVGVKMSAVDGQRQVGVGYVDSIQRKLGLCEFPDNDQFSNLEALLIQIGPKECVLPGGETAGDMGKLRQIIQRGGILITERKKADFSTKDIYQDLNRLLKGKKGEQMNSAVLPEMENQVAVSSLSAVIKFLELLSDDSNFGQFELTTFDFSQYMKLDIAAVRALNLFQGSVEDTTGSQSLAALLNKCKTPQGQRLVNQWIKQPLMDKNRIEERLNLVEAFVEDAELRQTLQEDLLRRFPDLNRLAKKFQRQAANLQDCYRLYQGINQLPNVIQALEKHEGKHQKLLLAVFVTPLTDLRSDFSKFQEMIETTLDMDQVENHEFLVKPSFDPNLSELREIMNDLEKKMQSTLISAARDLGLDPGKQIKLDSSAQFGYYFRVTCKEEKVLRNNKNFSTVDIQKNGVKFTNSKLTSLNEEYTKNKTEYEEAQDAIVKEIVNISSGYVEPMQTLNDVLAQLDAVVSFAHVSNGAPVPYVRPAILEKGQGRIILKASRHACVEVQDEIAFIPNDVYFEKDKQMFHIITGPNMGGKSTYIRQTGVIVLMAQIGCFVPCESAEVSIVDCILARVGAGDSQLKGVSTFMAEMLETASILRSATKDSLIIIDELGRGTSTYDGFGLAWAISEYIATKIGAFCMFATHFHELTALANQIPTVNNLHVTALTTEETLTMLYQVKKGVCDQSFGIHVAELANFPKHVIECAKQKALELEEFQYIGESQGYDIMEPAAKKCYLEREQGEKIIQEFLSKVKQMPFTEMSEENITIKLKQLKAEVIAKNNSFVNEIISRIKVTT
# UniProt P00403, whole entry, looked up: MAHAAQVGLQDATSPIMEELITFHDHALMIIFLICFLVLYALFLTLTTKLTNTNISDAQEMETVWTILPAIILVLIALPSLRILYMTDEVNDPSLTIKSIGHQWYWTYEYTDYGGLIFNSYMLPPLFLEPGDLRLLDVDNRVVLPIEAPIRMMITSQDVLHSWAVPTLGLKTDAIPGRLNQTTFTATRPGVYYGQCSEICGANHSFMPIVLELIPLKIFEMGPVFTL
# UniProt P00156: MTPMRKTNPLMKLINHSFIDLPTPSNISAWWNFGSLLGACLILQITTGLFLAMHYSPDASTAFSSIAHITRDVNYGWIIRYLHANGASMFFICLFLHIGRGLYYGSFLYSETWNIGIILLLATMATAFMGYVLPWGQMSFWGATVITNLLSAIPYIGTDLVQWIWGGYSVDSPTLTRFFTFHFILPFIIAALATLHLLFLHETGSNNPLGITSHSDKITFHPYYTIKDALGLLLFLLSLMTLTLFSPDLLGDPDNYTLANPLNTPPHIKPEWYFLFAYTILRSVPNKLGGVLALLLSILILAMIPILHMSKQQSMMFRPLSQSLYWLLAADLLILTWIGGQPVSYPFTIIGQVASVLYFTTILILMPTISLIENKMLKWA
# UniProt Q9C0I1: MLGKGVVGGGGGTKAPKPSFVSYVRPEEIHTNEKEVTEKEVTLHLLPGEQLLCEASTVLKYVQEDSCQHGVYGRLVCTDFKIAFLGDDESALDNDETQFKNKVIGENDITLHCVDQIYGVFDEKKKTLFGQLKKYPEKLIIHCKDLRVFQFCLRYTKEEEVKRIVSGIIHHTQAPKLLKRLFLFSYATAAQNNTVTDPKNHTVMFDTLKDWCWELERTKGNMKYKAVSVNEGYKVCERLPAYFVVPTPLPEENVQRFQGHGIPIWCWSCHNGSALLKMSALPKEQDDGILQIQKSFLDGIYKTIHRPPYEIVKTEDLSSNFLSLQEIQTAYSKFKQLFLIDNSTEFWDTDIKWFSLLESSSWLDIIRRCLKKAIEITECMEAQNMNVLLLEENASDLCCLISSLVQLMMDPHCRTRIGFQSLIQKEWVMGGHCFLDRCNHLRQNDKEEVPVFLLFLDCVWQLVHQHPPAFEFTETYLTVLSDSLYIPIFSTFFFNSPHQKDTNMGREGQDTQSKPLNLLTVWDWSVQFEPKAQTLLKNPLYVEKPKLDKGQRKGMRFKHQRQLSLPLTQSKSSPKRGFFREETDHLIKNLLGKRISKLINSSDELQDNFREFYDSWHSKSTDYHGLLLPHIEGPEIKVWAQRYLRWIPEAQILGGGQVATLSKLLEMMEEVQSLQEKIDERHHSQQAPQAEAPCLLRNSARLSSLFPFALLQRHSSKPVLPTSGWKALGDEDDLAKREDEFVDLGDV
# UniProt Q9Y217: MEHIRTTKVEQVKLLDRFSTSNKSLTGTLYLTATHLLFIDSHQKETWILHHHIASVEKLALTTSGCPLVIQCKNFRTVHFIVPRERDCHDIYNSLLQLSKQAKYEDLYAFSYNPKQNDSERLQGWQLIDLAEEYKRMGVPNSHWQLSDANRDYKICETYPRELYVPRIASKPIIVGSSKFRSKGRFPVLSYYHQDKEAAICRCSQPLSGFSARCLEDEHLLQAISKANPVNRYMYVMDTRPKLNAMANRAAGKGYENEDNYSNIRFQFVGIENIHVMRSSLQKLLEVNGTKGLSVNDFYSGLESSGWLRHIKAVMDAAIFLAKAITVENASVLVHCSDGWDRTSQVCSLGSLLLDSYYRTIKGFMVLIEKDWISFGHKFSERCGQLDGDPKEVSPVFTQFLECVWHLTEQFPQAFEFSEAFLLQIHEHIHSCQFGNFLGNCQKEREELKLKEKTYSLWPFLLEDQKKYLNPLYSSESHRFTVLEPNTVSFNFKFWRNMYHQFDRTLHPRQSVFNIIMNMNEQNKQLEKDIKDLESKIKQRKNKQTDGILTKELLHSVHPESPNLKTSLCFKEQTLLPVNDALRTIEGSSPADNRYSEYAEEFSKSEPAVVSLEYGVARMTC
# UniProt Q9ULH7: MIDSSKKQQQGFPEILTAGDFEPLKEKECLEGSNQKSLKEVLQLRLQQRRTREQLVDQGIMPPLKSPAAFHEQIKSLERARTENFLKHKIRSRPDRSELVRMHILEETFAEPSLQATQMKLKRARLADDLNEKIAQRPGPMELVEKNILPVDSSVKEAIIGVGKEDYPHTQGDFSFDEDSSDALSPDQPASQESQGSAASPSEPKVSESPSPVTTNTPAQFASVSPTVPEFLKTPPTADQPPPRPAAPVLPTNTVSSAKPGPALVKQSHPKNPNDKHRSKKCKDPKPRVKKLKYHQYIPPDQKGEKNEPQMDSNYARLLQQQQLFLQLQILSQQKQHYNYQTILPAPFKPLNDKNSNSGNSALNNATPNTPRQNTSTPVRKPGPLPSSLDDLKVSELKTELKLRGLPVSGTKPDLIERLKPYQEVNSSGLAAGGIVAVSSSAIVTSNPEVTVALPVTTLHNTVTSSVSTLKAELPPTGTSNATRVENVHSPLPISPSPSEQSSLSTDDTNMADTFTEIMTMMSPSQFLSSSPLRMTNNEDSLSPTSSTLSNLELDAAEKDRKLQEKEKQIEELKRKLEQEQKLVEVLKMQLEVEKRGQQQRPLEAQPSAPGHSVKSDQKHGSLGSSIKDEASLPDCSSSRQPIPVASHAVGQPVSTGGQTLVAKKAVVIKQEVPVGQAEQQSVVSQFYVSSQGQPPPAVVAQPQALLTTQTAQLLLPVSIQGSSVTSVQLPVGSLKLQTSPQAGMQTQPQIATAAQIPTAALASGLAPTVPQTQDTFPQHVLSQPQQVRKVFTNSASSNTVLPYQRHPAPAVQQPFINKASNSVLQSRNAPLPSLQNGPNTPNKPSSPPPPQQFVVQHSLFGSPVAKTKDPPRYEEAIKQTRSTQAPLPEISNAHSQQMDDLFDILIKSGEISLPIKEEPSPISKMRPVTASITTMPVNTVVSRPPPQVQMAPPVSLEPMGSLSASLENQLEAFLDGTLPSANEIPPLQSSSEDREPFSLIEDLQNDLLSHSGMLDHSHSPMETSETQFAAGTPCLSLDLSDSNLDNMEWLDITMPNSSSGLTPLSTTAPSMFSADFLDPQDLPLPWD
# UniProt Q9BUK6: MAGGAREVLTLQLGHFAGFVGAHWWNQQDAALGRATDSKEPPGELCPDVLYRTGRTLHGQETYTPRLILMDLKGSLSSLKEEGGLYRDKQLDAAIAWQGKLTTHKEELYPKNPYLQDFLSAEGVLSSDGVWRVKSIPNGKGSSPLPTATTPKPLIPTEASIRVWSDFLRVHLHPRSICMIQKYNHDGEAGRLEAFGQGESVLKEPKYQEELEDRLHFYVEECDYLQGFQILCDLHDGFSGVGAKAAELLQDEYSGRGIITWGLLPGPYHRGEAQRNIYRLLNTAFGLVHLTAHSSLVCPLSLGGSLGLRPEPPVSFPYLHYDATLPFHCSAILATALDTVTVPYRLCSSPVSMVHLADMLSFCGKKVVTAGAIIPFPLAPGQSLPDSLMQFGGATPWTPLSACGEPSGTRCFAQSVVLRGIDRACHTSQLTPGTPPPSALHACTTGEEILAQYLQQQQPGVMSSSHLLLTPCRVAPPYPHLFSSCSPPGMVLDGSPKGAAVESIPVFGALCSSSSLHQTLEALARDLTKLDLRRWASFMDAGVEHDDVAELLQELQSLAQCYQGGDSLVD
# The other results are listed elsewhere or left out.
# Assays:
# Assay in all cases: log2 fold change, soluble protein after heating vs DMSO (PISA); higher = thermal stabilisation; K562 lysate, 10 uM; active = over 0.2 and 3.5 SD of the protein, either way, in both replicates (recomputed)
# [1] = compound: CCCS(=O)(=O)Nc1ccc(F)c(C(=O)c2c[nH]c3ncc(-c4ccc(Cl)cc4)cc23)c1F [vemurafenib]
# In short: (§1)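 Thermal stability, expressed as log-two fold change relative to solvent controls, is given from duplicates. Crude K562 extract in PBS pH 7.4 with 1 mM MgCl2, at 1 mg/mL protein, was treated with 10 μM compound for 30 min and heated in aliquots for 3 min across 48°C-58°C. After pooling, adjustment to 0.5% NP-40 at 4°C and centrifugation at 21,000xg for 90 min, supernatant protein was measured by TMTpro 16plex LC-MS/MS with channel sums equalised.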
# [2] = compound: CCCS(=O)(=O)Nc1ccc(F)c(C(=O)c2c[nH]c3ncc(Cl)cc23)c1F
# In short: as §1
# [3] = compound: CCN(CCCOc1ccc2c(Nc3cc(CC(=O)Nc4cccc(F)c4)[nH]n3)ncnc2c1)CCOP(=O)(O)O [barasertib]
# In short: as §1
# [4] = compound: CC[C@@H]1C(=O)N(C)c2cnc(Nc3ccc(C(=O)NC4CCN(C)CC4)cc3OC)nc2N1C1CCCC1
# In short: as §1
# [5] = compound: CC[C@@H]1C(=O)N(C)c2cnc(Nc3ccc(C(=O)N[C@H]4CC[C@H](N5CCN(CC6CC6)CC5)CC4)cc3OC)nc2N1C(C)C [volasertib]
# In short: as §1
# [6] = compound: CCn1c(C(=O)N(C2CC2)C2CC2)cc2c3c(ncn3C)c(Nc3cc(C)n(C)n3)nc21
# In short: as §1
# [7] = compound: CCn1cc(-c2ccnc3[nH]c(-c4cccc(CN(C)C)c4)cc23)c(-c2ccc(NC(=O)N(C)C)cc2)n1
# In short: as §1
# [8] = compound: CN1CCC(CNc2ccc3ncc(-c4cccc(OC(F)(F)F)c4)n3n2)CC1
# In short: as §1
# [9] = compound: CN1CCN(CCOc2cc(OC3CCOCC3)c3c(Nc4c(Cl)ccc5c4OCO5)ncnc3c2)CC1 [saracatinib]
# In short: as §1
# [10] = compound: CN1CCN(c2nc(C3=C(c4c[nH]c5ccccc45)C(=O)NC3=O)c3ccccc3n2)CC1 [sotrastaurin]
# In short: as §1
# [11] = compound: CN1CC[C@H](c2c(O)cc(O)c3c(=O)cc(-c4ccccc4Cl)oc23)[C@H](O)C1 [alvocidib]
# In short: as §1
# [12] = compound: CN1CCc2c(c3ccccc3n2Cc2ccc(C(=O)NO)cc2)C1 [Tubastatin A]
# In short: as §1
# [13] = compound: CNC(=O)C1=CC=CC=C1NC2=NC(=NC=C2Cl)NC3=C(C=C(C=C3)N4CCOCC4)OC
# In short: as §1
# [14] = compound: CNC(=O)c1ccc(Nc2ncc(C(F)(F)F)c(NCc3nccnc3N(C)S(C)(=O)=O)n2)cc1 [defactinib]
# In short: as §1
# [15] = compound: CNc1nc(-c2ccc3c(N)n[nH]c3c2)cc(N2C[C@@H](C(=O)NC3CCCCC3)CC[C@H]2C)n1
# In short: as §1
# [16] = compound: COC(=O)N[C@@H](C)CNc1nccc(-c2cn(C(C)C)nc2-c2cc(Cl)cc(NS(C)(=O)=O)c2F)n1 [encorafenib]
# In short: as §1
# [17] = compound: COC(=O)[C@H](CCSC)NC(=O)C1=C(C=C(C=C1)NC[C@H](CS)N)C2=CC=CC=C2
# In short: as §1
# [18] = compound: COc1cc(Nc2ncc3c(n2)-c2ccc(Cl)cc2C(c2c(F)cccc2OC)=NC3)ccc1C(=O)O [alisertib]
# In short: as §1
# [19] = compound: COc1cc2nc(-c3cc(F)ccc3O)nc(N[C@@H]3CNC[C@H]3C(C)(C)O)c2cc1OC
# In short: as §1
# [20] = compound: COc1cc2ncnc(Nc3ccc(F)c(Cl)c3)c2cc1OCCCN1CCOCC1 [gefitinib]
# In short: as §1
Target,log2 fold change [1],log2 fold change [2],log2 fold change [3],log2 fold change [4],log2 fold change [5],log2 fold change [6],log2 fold change [7],log2 fold change [8],log2 fold change [9],log2 fold change [10],log2 fold change [11],log2 fold change [12],log2 fold change [13],log2 fold change [14],log2 fold change [15],log2 fold change [16],log2 fold change [17],log2 fold change [18],log2 fold change [19],log2 fold change [20]
MRPS18A isoform 2 (UniProt Q9NVS2),inactive: 0.073,inactive: 0.03,inactive: 0.037,inactive: 0.073,inactive: -0.019,inactive: -0.04,active: 0.306,inactive: -0.121,inactive: -0.042,inactive: 0.036,inactive: 0.18,inactive: -0.047,inactive: -0.156,inactive: -0.024,inactive: 0.106,inactive: 0.029,inactive: -0.037,inactive: 0.041,inactive: -0.017,inactive: 0.008
MTX1 (UniProt Q13505),inactive: 0.036,inactive: 0.011,inactive: 0.057,inactive: 0.007,inactive: -0.005,inactive: -0.039,inactive: -0.049,inactive: 0.06,inactive: -0.009,inactive: 0.006,inactive: -0.008,inactive: 0.057,inactive: 0.006,inactive: -0.048,inactive: 0.028,inactive: 0.005,inactive: -0.023,inactive: -0.015,inactive: 0.062,inactive: -0.005
MRPL49 (UniProt Q13405),inactive: 0.048,inactive: -0.003,inactive: 0.043,inactive: -0.024,inactive: -0.007,inactive: -0.015,inactive: -0.016,inactive: -0.124,inactive: 0.029,inactive: -0.023,inactive: 0.035,inactive: 0.031,inactive: 0.004,inactive: -0.003,inactive: -0.029,inactive: 0.006,inactive: -0.029,inactive: -0.013,inactive: -0.03,inactive: -0.046
MTMR14 (UniProt Q8NCE2),inactive: 0.024,inactive: 0.061,inactive: 0.027,inactive: 0.018,inactive: -0.08,inactive: 0.031,inactive: -0.016,inactive: 0.002,inactive: 0.034,inactive: -0.01,inactive: -0.013,inactive: -0.093,inactive: 0.02,inactive: 0.023,inactive: -0.013,inactive: 0.066,inactive: -0.151,inactive: -0.017,inactive: -0.004,inactive: -0.034
MSH2 (UniProt P43246),inactive: -0.014,inactive: 0.001,inactive: 0.007,inactive: -0.033,inactive: -0.068,inactive: 0.038,inactive: 0.003,inactive: -0.055,inactive: 0,inactive: 0.032,inactive: 0.026,inactive: -0.105,inactive: -0.017,inactive: 0.023,inactive: 0.007,inactive: 0.011,inactive: 0.061,inactive: -0.011,inactive: -0.002,inactive: -0.007
MT-CO2 (UniProt P00403),inactive: -0.005,inactive: 0.055,inactive: -0.105,inactive: -0.034,inactive: -0.007,inactive: 0.005,inactive: 0.086,inactive: -0.065,inactive: 0.022,inactive: 0.007,inactive: 0.034,inactive: 0.004,inactive: 0.026,inactive: 0.032,inactive: 0.008,inactive: 0.07,inactive: -0.044,inactive: 0.011,inactive: -0.033,inactive: -0.025
MRPL46 (UniProt Q9H2W6),inactive: 0.058,inactive: -0.001,inactive: -0.015,inactive: 0.115,inactive: 0.044,inactive: 0.064,active: 0.523,inactive: -0.029,inactive: 0.024,inactive: 0.032,inactive: 0.125,inactive: -0.097,inactive: 0.28,inactive: 0.051,inactive: 0.058,inactive: -0.032,inactive: 0,inactive: 0.02,inactive: -0.045,inactive: 0.041
MRPL53 (UniProt Q96EL3),inactive: -0.006,inactive: -0.01,inactive: 0.032,inactive: 0.069,inactive: 0.057,inactive: -0.017,inactive: 0.013,inactive: -0.019,inactive: -0.003,inactive: -0.021,inactive: 0.005,inactive: -0.048,inactive: -0.02,inactive: 0.051,inactive: -0.048,inactive: -0.036,active: -0.226,inactive: 0.049,inactive: 0,inactive: -0.048
MT-CYB (UniProt P00156),inactive: 0.004,inactive: -0.03,inactive: -0.054,inactive: 0,inactive: 0.056,inactive: -0.097,active: -0.993,active: 0.521,inactive: 0.047,inactive: 0.027,inactive: -0.326,inactive: 0.078,inactive: -0.027,inactive: 0.091,inactive: 0.129,inactive: 0.036,inactive: -0.093,inactive: -0.131,inactive: 0.062,inactive: 0.102
MRPS24 (UniProt Q96EL2),inactive: 0,inactive: -0.004,inactive: 0.05,inactive: -0.122,inactive: -0.015,inactive: 0.011,inactive: -0.158,inactive: 0.114,inactive: 0.107,inactive: 0.04,inactive: -0.052,inactive: -0.039,inactive: -0.093,inactive: -0.206,inactive: -0.27,inactive: -0.016,inactive: 0.004,inactive: 0.038,inactive: 0.001,inactive: -0.082
MTMR12 (UniProt Q9C0I1),inactive: 0.005,inactive: 0.041,inactive: 0.023,inactive: 0.01,inactive: 0.025,inactive: 0.01,inactive: -0.028,inactive: 0.019,inactive: 0.02,inactive: 0.058,inactive: -0.003,inactive: 0.006,inactive: 0.006,inactive: 0.005,inactive: 0.056,inactive: 0.02,inactive: 0.007,inactive: -0.014,inactive: 0.013,inactive: -0.004
MTMR6 (UniProt Q9Y217),inactive: 0.038,inactive: 0.012,inactive: 0.018,inactive: 0.006,inactive: -0.024,inactive: -0.055,inactive: 0.217,inactive: -0.08,inactive: 0.024,inactive: 0.087,inactive: -0.034,inactive: -0.019,inactive: 0,inactive: -0.042,inactive: -0.047,inactive: 0.028,inactive: -0.092,inactive: 0.022,inactive: 0.004,inactive: -0.053
MRPL41 (UniProt Q8IXM3),inactive: 0.018,inactive: 0.023,inactive: -0.04,inactive: 0.066,inactive: -0.042,inactive: -0.015,inactive: 0.035,inactive: -0.037,inactive: 0.041,inactive: -0.022,inactive: 0.096,inactive: -0.023,inactive: 0.038,inactive: 0.038,inactive: 0.002,inactive: -0.004,inactive: 0.126,inactive: -0.013,inactive: 0.028,inactive: -0.021
MRTFB isoform 5 (UniProt Q9ULH7),inactive: -0.025,inactive: 0.036,inactive: -0.042,inactive: 0.028,inactive: -0.096,inactive: -0.023,inactive: -0.004,inactive: -0.049,inactive: 0.03,inactive: -0.016,inactive: -0.027,inactive: -0.077,inactive: 0.035,inactive: 0.014,inactive: 0.051,inactive: -0.001,inactive: -0.049,inactive: 0.006,inactive: 0.02,inactive: -0.003
MRPL45 (UniProt Q9BRJ2),inactive: 0.064,inactive: -0.021,inactive: 0.088,inactive: -0.025,inactive: -0.002,inactive: -0.001,inactive: -0.006,inactive: -0.1,inactive: 0.008,inactive: -0.032,inactive: 0.005,inactive: -0.075,inactive: 0.021,inactive: -0.022,inactive: -0.001,inactive: 0,inactive: 0.102,inactive: 0.017,inactive: 0.027,inactive: -0.077
MSTO1 (UniProt Q9BUK6),inactive: -0.025,inactive: -0.059,inactive: 0.015,inactive: -0.03,inactive: -0.021,inactive: 0.017,inactive: 0.049,inactive: -0.016,inactive: -0.031,inactive: -0.045,inactive: 0.02,inactive: -0.044,inactive: -0.06,inactive: 0.022,inactive: -0.027,inactive: 0.054,inactive: -0.05,inactive: 0.007,inactive: -0.003,inactive: 0.002

# Complete entries as entered above. Values in the order: log2 fold change [1] | log2 fold change [2] | log2 fold change [3] | log2 fold change [4] | log2 fold change [5] | log2 fold change [6] | log2 fold change [7] | log2 fold change [8] | log2 fold change [9] | log2 fold change [10] | log2 fold change [11] | log2 fold change [12] | log2 fold change [13] | log2 fold change [14] | log2 fold change [15] | log2 fold change [16] | log2 fold change [17] | log2 fold change [18] | log2 fold change [19] | log2 fold change [20]
# MRPS18A isoform 2 (UniProt Q9NVS2) as listed: inactive: 0.073 | inactive: 0.03 | inactive: 0.037 | inactive: 0.073 | inactive: -0.019 | inactive: -0.04 | active: 0.306 | inactive: -0.121 | inactive: -0.042 | inactive: 0.036 | inactive: 0.18 | inactive: -0.047 | inactive: -0.156 | inactive: -0.024 | inactive: 0.106 | inactive: 0.029 | inactive: -0.037 | inactive: 0.041 | inactive: -0.017 | inactive: 0.008
# MRPL45 (UniProt Q9BRJ2) as listed: inactive: 0.064 | inactive: -0.021 | inactive: 0.088 | inactive: -0.025 | inactive: -0.002 | inactive: -0.001 | inactive: -0.006 | inactive: -0.1 | inactive: 0.008 | inactive: -0.032 | inactive: 0.005 | inactive: -0.075 | inactive: 0.021 | inactive: -0.022 | inactive: -0.001 | inactive: 0 | inactive: 0.102 | inactive: 0.017 | inactive: 0.027 | inactive: -0.077
